Measurements taken from paper PMC7195429.
Results are given in words; binding and its absence hold for the method and conditions named. For some assays here: A result given as binding can be weak or reduced; the word gives no strength. For some assays here: Tags and fused reporters may be left off the sequences shown. For some assays here: In cells and extracts the contact can be indirect.

The chains behind the UniProt entries cited, without tags or fusion partners. Where a name states a change or a piece, a line headed by the entry shows the natural chain unless it says otherwise.
UniProt Q45GQ3: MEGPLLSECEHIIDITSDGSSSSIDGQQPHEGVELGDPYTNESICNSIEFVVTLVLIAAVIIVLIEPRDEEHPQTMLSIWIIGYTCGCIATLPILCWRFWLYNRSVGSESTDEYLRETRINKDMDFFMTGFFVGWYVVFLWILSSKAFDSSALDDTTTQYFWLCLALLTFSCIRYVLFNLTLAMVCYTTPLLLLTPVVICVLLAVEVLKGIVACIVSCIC

Columns and labels:
[1] = molecular target: T1, BD-KCR1 (Arabidopsis thaliana) (UniProt Q8L9C4); experiment: two-hybrid; GAL4-based yeast two-hybrid, strain PJ69-4A; AD-SYAC1 (prey) with BD fusions (bait); SD -Leu/-Trp/-His with 3-amino-1,2,4-triazole
T1 sequence: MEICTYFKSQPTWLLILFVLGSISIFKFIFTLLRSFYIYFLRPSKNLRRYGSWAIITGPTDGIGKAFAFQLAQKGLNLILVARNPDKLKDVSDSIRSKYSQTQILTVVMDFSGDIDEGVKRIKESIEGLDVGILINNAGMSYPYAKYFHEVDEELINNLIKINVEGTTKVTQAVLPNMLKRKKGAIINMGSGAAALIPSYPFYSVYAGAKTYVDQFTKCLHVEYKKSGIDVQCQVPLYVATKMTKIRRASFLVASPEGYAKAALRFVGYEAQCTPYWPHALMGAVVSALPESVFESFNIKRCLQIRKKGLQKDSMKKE

[2] = molecular target: T2, BD-YIP4b (Arabidopsis thaliana) (UniProt Q93VH1); experiment: as above
T2 sequence: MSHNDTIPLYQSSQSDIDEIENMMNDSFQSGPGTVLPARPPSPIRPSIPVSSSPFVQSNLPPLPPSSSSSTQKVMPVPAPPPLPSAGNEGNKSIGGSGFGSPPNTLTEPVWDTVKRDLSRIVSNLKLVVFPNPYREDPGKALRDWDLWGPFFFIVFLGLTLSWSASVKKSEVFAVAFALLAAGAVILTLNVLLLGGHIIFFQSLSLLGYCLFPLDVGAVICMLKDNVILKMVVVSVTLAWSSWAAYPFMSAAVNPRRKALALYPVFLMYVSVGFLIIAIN

[3] = molecular target: T3, BD-YIP4a (Arabidopsis thaliana) (UniProt O64614); experiment: as above
T3 sequence: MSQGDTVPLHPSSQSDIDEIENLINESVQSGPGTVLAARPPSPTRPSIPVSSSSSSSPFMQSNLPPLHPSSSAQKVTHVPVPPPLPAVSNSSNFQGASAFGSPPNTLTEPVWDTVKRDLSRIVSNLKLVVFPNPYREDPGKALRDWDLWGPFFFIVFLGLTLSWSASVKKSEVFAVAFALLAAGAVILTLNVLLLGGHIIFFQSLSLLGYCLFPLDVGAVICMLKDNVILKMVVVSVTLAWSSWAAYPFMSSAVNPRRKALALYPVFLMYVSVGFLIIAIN

[4] = molecular target: T4, BD-ECH (Arabidopsis thaliana) (UniProt Q8LEK2); experiment: as above
T4 sequence: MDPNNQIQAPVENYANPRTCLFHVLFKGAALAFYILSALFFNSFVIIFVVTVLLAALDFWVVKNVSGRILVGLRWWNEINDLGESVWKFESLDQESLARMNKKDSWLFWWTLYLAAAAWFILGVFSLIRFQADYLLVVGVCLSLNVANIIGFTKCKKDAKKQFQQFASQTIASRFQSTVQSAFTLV

[5] = molecular target: T5, YIP4a-MYC (Arabidopsis thaliana) (UniProt O64614); experiment: co-IP; co-transfected Arabidopsis root cell culture protoplasts; lysate with 150 mM NaCl; anti-GFP or anti-Myc immunoprecipitation on Protein G magnetic beads, 4 °C; blot with anti-HA
T5 sequence: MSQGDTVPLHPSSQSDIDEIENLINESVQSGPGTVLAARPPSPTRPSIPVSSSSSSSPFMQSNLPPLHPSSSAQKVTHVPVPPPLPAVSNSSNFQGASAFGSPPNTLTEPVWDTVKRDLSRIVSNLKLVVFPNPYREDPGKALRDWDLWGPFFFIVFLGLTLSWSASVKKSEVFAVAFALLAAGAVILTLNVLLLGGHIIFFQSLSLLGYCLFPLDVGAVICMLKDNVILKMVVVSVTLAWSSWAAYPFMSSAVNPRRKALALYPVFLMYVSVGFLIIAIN

[6] = molecular target: T6, nEYFP-YIP4b (Arabidopsis thaliana) (UniProt Q93VH1); experiment: split reporter; BiFC with cEYFP-SYAC1 and nEYFP fusions mixed 1:1, transiently expressed in Arabidopsis root suspension culture protoplasts; confocal microscopy
T6 sequence: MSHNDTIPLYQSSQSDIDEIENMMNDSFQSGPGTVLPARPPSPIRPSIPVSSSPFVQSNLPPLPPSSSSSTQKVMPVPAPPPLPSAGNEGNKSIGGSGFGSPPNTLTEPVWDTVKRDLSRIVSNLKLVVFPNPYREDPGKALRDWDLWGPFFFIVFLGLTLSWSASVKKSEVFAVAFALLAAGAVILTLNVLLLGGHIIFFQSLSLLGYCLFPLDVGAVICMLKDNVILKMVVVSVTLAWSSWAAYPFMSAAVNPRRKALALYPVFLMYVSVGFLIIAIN

[7] = molecular target: T7, nEYFP-KCR1 (Arabidopsis thaliana) (UniProt Q8L9C4); experiment: as above
T7 sequence: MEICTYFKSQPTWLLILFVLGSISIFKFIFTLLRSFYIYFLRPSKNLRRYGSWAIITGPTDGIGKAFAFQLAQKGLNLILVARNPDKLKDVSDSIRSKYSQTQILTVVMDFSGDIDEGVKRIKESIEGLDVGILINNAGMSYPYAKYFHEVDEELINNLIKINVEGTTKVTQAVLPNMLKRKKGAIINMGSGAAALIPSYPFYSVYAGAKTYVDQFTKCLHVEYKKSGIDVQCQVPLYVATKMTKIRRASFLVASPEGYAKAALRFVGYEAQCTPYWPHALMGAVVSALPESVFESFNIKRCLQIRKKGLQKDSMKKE

[8] = molecular target: T8, nEYFP-PHB4 (Arabidopsis thaliana) (UniProt Q9LK25); experiment: as above
T8 sequence: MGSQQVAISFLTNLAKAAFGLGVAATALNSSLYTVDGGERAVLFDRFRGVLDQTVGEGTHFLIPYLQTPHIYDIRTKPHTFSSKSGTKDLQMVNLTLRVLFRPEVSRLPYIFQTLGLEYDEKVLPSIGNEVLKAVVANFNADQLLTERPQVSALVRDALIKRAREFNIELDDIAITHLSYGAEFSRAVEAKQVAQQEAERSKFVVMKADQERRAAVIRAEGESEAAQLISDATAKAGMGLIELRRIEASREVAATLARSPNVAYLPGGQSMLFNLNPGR

[9] = molecular target: T9, nEYFP-ECH (Arabidopsis thaliana) (UniProt Q8LEK2); experiment: as above
T9 sequence: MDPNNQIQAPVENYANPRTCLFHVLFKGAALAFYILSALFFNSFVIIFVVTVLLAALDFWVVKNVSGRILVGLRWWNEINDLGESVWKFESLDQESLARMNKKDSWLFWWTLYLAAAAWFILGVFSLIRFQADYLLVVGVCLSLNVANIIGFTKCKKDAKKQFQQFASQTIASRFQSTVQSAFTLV

[10] = molecular target: T10, nEYFP-YIP4a (Arabidopsis thaliana) (UniProt O64614); experiment: as above
T10 sequence: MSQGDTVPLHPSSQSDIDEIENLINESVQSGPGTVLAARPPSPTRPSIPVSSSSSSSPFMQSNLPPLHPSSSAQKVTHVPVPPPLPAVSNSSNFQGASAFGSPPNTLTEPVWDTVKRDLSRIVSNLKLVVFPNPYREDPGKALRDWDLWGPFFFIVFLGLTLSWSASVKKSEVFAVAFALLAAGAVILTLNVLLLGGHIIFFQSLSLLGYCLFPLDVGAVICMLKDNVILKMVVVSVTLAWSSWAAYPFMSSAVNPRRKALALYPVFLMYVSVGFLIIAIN

[11] = molecular target: SYAC1-GFP (Arabidopsis thaliana); experiment: co-IP; co-transfected Arabidopsis root cell culture protoplasts; lysate with 150 mM NaCl; anti-GFP or anti-Myc immunoprecipitation on Protein G magnetic beads, 4 °C; blot with anti-HA

For AD-SYAC1 (from UniProt Q45GQ3), the binding [1] was “binds weakly”, the binding [2] was “binds” and the binding [3] was “binds”. The binding [4] was “binds”.

For SYAC1-HA (Arabidopsis thaliana), the binding [5] was “binds”.

In the case of cEYFP-SYAC1 (Arabidopsis thaliana), the binding [6] is reported as “binds”, the binding [7] is reported as “no binding” and the binding [8] is reported as “no binding”. The binding [9] was “binds” and the binding [10] was “binds”.

B1: ECH-HA (protein, UniProt Q8LEK2 1-186)
chain: MDPNNQIQAPVENYANPRTCLFHVLFKGAALAFYILSALFFNSFVIIFVVTVLLAALDFWVVKNVSGRILVGLRWWNEINDLGESVWKFESLDQESLARMNKKDSWLFWWTLYLAAAAWFILGVFSLIRFQADYLLVVGVCLSLNVANIIGFTKCKKDAKKQFQQFASQTIASRFQSTVQSAFTLV
For B1, the binding [11] was “binds”.
